In the supplement of paper PMC12823440, “Inhibitors supercharge kinase turnover through native proteolytic circuits” (Nature, 2025):
Structures can show the parent of a compound that is named as a salt. This is one part of the list. Hit calls seldom repeat between salt and free forms of one compound.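 Kinases, fused to nanoluciferase, were expressed in K562 cells; luminescence was measured every 4 h from 2 to 18 h as percent of control (DMSO = 100%, positive control = 0%). A time point is decreased if signal falls significantly (2 sigma). Hits were called by the authors by a rule that is not shown; the count of time points alone does not decide it.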

Amino acid sequences for entries named in this document (tags omitted). A change or cut given only in a name is not applied to a line headed by its entry.
UniProt P36888, whole entry: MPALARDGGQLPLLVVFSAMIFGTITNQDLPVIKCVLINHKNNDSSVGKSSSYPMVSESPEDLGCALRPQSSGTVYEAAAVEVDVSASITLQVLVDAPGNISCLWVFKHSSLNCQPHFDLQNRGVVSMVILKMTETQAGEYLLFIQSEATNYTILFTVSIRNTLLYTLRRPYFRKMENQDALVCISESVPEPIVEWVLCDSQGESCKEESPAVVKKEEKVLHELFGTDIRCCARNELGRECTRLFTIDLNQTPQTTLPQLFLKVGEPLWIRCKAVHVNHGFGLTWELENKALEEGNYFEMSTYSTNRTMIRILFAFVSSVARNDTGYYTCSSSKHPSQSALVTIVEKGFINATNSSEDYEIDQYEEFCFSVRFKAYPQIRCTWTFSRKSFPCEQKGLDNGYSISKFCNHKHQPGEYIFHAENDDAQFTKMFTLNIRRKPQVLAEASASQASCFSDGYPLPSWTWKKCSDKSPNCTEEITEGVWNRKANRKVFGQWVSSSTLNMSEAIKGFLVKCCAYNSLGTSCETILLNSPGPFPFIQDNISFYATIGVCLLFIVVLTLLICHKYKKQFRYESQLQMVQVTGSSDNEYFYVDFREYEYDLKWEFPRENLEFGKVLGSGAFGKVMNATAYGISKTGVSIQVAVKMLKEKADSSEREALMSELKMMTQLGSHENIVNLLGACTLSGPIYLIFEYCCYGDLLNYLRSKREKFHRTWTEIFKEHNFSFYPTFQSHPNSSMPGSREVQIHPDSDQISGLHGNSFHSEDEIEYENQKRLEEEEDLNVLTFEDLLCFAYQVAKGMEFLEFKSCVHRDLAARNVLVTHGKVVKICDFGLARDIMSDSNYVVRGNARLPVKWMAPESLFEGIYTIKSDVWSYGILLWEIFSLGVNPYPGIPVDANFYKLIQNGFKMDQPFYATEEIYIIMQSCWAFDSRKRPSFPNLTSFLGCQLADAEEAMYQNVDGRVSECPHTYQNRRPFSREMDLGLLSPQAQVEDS
UniProt P06241, whole entry, looked up: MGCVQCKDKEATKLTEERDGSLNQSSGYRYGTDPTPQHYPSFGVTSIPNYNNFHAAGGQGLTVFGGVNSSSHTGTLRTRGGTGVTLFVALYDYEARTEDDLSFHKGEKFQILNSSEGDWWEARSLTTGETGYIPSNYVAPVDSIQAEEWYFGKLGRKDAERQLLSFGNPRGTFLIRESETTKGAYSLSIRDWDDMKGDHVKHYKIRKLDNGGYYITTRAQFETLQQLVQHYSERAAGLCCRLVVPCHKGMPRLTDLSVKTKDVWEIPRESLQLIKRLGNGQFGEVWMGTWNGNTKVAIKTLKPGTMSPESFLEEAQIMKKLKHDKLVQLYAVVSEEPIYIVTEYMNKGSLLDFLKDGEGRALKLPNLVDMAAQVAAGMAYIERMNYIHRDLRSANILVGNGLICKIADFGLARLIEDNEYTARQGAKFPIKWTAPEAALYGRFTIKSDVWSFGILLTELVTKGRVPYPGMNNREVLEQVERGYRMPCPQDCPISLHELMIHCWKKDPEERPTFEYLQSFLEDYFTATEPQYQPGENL
UniProt P49840: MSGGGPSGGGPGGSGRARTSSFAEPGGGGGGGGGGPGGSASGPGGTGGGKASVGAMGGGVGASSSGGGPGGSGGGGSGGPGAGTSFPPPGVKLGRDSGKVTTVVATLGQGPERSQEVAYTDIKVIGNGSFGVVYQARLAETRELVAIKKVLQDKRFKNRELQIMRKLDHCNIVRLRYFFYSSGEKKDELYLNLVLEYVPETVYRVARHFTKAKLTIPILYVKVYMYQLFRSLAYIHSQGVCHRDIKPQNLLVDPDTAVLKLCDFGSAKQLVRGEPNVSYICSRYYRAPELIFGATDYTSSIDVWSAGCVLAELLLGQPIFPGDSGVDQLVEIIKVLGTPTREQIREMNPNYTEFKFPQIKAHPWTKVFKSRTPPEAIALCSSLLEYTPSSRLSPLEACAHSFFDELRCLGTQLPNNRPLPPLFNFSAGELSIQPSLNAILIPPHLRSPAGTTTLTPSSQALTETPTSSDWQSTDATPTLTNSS
UniProt Q9Y616: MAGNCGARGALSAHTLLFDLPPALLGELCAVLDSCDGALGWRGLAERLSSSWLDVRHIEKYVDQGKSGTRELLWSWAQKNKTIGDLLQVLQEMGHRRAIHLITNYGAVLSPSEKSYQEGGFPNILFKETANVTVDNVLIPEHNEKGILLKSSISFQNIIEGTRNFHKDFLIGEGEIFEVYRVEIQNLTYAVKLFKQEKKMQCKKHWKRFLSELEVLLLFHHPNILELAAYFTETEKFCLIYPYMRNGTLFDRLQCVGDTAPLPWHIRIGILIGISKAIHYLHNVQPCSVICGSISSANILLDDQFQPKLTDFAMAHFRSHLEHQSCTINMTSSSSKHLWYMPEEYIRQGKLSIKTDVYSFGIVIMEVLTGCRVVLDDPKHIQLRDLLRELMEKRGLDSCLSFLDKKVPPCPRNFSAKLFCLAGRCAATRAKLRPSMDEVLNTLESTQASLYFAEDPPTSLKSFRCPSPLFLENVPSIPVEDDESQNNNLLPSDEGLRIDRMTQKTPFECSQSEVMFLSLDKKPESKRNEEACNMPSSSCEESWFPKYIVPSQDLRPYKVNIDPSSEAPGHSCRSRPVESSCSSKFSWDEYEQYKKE
UniProt P23458: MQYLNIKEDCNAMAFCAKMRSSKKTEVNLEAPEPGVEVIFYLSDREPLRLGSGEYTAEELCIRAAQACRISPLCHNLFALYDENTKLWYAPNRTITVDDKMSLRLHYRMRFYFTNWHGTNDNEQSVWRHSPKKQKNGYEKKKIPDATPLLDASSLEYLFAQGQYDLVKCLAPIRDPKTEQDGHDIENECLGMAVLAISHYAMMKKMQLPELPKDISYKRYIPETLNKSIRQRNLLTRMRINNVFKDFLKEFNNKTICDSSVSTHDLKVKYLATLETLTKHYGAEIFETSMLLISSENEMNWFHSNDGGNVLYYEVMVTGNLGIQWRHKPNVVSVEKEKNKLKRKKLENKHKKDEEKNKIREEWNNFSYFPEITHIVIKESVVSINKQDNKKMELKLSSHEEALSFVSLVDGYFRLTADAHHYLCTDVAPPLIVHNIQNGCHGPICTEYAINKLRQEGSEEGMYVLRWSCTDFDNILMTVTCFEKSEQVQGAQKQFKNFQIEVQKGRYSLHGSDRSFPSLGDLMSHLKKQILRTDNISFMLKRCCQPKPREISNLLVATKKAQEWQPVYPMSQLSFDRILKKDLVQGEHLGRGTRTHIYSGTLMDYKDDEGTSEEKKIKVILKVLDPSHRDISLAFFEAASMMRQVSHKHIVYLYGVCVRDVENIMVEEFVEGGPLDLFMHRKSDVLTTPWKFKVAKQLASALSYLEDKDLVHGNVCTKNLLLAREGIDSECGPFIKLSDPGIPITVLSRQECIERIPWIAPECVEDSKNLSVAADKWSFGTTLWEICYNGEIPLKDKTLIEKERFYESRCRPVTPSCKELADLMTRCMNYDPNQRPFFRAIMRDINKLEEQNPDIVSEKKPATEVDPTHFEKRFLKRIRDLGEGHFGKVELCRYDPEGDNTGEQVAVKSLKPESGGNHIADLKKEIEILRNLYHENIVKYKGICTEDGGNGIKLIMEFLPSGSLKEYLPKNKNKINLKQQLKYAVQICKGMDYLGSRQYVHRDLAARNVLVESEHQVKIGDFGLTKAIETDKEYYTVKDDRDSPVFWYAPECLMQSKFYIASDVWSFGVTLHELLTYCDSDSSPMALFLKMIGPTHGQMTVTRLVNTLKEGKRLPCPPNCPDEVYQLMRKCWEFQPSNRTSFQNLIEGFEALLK
UniProt P06239: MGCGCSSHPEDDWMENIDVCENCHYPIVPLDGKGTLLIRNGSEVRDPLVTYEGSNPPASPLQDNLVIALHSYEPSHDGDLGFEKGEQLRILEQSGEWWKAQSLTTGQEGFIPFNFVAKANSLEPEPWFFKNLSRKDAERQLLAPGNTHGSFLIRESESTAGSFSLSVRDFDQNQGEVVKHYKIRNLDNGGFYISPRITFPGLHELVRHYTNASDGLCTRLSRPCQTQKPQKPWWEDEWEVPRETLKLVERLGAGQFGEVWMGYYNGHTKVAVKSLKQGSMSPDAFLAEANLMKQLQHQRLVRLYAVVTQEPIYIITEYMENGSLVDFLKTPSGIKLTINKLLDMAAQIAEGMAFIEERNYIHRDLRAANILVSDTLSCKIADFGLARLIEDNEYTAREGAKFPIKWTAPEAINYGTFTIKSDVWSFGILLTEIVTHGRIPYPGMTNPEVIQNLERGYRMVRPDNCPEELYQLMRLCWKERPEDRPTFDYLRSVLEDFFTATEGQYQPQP
UniProt P53667: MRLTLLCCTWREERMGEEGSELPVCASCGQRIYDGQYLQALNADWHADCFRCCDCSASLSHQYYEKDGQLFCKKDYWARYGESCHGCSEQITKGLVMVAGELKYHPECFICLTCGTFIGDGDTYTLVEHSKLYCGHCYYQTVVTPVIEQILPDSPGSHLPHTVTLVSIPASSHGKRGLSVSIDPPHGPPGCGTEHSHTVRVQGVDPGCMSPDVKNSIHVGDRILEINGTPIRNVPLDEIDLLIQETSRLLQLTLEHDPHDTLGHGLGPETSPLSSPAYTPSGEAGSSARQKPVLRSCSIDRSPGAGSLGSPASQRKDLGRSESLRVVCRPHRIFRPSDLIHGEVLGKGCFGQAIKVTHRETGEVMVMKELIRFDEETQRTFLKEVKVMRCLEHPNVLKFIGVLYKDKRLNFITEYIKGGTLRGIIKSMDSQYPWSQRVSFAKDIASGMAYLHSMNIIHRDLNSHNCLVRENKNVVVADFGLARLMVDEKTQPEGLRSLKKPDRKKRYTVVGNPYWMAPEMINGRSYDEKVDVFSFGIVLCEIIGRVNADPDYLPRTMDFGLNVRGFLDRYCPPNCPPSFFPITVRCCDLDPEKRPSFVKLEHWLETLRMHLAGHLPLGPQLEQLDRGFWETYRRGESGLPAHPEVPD
UniProt P53671: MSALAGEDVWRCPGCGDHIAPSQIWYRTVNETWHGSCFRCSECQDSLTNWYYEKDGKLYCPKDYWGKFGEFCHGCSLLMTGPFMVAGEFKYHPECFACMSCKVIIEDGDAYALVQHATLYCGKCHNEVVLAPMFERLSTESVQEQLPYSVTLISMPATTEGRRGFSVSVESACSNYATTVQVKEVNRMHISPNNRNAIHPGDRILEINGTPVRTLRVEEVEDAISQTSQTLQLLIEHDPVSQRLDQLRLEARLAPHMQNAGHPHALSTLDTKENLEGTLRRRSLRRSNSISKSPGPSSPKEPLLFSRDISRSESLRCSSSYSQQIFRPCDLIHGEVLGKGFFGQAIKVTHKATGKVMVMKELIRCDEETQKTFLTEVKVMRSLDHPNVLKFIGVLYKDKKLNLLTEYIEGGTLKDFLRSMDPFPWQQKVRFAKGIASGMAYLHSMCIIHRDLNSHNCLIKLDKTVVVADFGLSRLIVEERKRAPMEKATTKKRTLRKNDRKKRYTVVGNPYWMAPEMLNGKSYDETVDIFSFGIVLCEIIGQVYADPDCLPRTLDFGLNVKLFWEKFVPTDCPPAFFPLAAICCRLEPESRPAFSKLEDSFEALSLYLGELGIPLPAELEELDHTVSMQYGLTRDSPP

Experiments:
Assay in all cases: number of time points (of 5) at which kinase-Nluc abundance scored as decreased, DMSO-normalised (count); higher = more persistent destabilization
Conditions in all cases: K562; 2-18 h
[1] = target: FLT3 (UniProt P36888)
[2] = target: FYN (UniProt P06241)
[3] = target: GSK3A (UniProt P49840)
[4] = target: HER2 (UniProt P04626)
[5] = target: INSRR (UniProt P14616)
[6] = target: IRAK3 (UniProt Q9Y616)
[7] = target: JAK1 (UniProt P23458)
[8] = target: LCK (UniProt P06239)
[9] = target: LIMK1 (UniProt P53667)
[10] = target: LIMK2 (UniProt P53671)

| SMILES | number of time points [1] | number of time points [2] | number of time points [3] | number of time points [4] | number of time points [5] | number of time points [6] | number of time points [7] | number of time points [8] | number of time points [9] | number of time points [10] |
| --- | --- | --- | --- | --- | --- | --- | --- | --- | --- | --- |
| N[C@@H](CCC(=O)O)C(=O)N[C@@H](Cc1c[nH]c2ccccc12)C(=O)O [Oglufanide] (10 µM) | 0 | 0 | 0 | 0 | 0 | 0 | 0 | 0 | 0 | 0 |
| C#Cc1cccc(Nc2ncnc3cc(OC)c(OCCCCCCC(=O)NO)cc23)c1 (2.5 µM) | 0 | 0 | 0 | 0 | 0 | 0 | 0 | 0 | 0 | 1 |
| FC(F)(F)c1ccc(/C=C/c2nc(COc3ccc(CCCCn4ccnn4)cc3)co2)cc1 [Mubritinib] (10 µM) | 1 | 0 | 0 | 1 | 0 | 3 | 0 | 0 | 0 | 0 |
| CCn1c(=O)c(-c2cc[nH]n2)cc2c(C)nc(N)nc21 [Voxtalisib] (10 µM) | 0 | 0 | 0 | 0 | 1 | 0 | 0 | 0 | 2 | 0 |
| CN1CC[C@@H](c2c(O)cc(O)c3c(=O)cc(-c4ccc(C(F)(F)F)cc4Cl)oc23)[C@@H]1CO [Voruciclib (hydrochloride)] (10 µM) | 0 | 0 | 0 | 0 | 0 | 0 | 0 | 0 | 0 | 0 |
| Oc1cc(O)c2c(c1)OC1(c3ccc(O)c(O)c3)Oc3cc(O)c4c(c3C2C1O)OC(c1ccc(O)c(O)c1)C(O)C4 (stereo not given) [Procyanidin A1] (10 µM) | 0 | 0 | 0 | 0 | 0 | 0 | 0 | 0 | 0 | 0 |
| C=CC(=O)N1C(=O)CC(c2ccc(F)cc2)Sc2ccccc21 (stereo not drawn) [GSK-3β inhibitor 3] (10 µM) | 0 | 2 | 0 | 3 | 0 | 0 | 0 | 0 | 0 | 0 |
| Cc1ccc(NC(=O)c2ccnc(C(F)(F)F)c2)cc1-c1cc(OCCO)nc(N2CCOCC2)c1 (10 µM) | 0 | 0 | 0 | 0 | 0 | 0 | 0 | 0 | 0 | 0 |
| C[C@@H]1CCNC(=O)c2cc3ccc(C(=O)Nc4nc5ccccc5n4CCCN(C)C)cc3n21 (10 µM) | 0 | 0 | 0 | 0 | 0 | 0 | 0 | 0 | 0 | 0 |
| Cn1ncc2cc(-c3cnc(N)c(Cl)c3N3CCC4(CCNC4=O)CC3)ccc21 (10 µM) | 0 | 0 | 0 | 0 | 0 | 0 | 0 | 0 | 0 | 0 |
| COc1cc(N2CCOCC2)ccc1NC(=O)c1csc(-c2cccnc2)n1 [IRAK inhibitor 6] (10 µM) | 0 | 0 | 0 | 0 | 0 | 0 | 0 | 0 | 0 | 0 |
| C[C@@H]1O[C@@H](O[C@@H]2[C@@H](O)[C@H](OCCc3ccc(O)c(O)c3)O[C@H](CO)[C@H]2OC(=O)/C=C/c2ccc(O)c(O)c2)[C@H](O)[C@H](O)[C@H]1O [Verbascoside] (10 µM) | 0 | 0 | 0 | 0 | 0 | 0 | 0 | 0 | 0 | 0 |
| COc1cc(-c2cn[nH]c2)ccc1C(=O)Nc1ccc2c(c1)CCNCC2 (10 µM) | 0 | 0 | 0 | 0 | 0 | 0 | 0 | 0 | 0 | 0 |
| O=c1cc(-c2cccc3c2Sc2ccccc2S3)oc(N2CCOCC2)c1 (10 µM) | 0 | 0 | 0 | 0 | 0 | 0 | 0 | 0 | 0 | 0 |
| COc1ccc(/C=C/C(=O)C2(C(=O)/C=C/c3ccc(OC)c(OC)c3)CCCCC2)cc1OC (2.5 µM) | 0 | 2 | 0 | 1 | 1 | 0 | 0 | 0 | 0 | 0 |
| Cc1ncc(NC(=O)NC2c3ccccc3-c3ccccc32)c(-c2ccccc2)n1 (10 µM) | 0 | 0 | 0 | 0 | 0 | 0 | 0 | 0 | 0 | 0 |
| Cc1ccc(C(=O)Nc2sc(Nc3ccccc3)nc2C(N)=O)cc1 (10 µM) | 0 | 0 | 0 | 0 | 0 | 0 | 0 | 0 | 0 | 0 |
| COc1cc2ncnc(Nc3ccccc3)c2cc1OC (10 µM) | 0 | 5 | 0 | 0 | 0 | 0 | 0 | 0 | 0 | 0 |
| O=c1cc(N2CCOCC2)nc2c3ccccc3ccn12 [Compound 401] (10 µM) | 0 | 0 | 0 | 0 | 0 | 0 | 0 | 0 | 0 | 0 |

Quoted from the listing.
number of time points [1], FC(F)(F)c1ccc(/C=C/c2nc(COc3ccc(CCCCn4ccnn4)cc3)co2)cc1 [Mubritinib] (10 µM) is entered as 1
number of time points [3], COc1cc(-c2cn[nH]c2)ccc1C(=O)Nc1ccc2c(c1)CCNCC2 (10 µM) is entered as 0
